Source: publication PMC11727331
Results are given in words; binding and its absence hold for the method and conditions named. In cells and extracts the contact can be indirect. Some entries that bind do so weakly or less than the wild type.

By UniProt entry, the sequences of proteins in these tests, tags left out.
UniProt P08047: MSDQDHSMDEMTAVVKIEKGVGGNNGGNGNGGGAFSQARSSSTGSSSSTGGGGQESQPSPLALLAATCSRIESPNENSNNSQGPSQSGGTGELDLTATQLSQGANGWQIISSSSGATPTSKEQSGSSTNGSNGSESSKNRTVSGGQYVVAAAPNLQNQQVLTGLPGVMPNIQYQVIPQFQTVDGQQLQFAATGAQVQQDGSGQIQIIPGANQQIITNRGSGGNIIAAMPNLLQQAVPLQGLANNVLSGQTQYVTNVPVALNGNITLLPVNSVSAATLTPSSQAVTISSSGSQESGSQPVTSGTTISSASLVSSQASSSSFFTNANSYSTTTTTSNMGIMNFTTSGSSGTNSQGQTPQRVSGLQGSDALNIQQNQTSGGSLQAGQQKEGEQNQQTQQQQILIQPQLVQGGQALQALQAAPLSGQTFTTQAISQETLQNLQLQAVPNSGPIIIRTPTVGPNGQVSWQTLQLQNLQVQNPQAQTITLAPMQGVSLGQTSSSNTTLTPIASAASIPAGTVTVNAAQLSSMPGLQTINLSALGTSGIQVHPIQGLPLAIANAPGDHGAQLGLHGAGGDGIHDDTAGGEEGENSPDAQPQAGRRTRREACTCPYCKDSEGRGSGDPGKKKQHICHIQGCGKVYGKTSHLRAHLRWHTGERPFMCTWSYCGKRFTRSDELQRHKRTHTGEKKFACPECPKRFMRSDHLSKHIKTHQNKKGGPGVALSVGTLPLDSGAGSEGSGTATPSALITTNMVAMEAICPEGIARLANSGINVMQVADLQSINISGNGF
UniProt Q9UBN7: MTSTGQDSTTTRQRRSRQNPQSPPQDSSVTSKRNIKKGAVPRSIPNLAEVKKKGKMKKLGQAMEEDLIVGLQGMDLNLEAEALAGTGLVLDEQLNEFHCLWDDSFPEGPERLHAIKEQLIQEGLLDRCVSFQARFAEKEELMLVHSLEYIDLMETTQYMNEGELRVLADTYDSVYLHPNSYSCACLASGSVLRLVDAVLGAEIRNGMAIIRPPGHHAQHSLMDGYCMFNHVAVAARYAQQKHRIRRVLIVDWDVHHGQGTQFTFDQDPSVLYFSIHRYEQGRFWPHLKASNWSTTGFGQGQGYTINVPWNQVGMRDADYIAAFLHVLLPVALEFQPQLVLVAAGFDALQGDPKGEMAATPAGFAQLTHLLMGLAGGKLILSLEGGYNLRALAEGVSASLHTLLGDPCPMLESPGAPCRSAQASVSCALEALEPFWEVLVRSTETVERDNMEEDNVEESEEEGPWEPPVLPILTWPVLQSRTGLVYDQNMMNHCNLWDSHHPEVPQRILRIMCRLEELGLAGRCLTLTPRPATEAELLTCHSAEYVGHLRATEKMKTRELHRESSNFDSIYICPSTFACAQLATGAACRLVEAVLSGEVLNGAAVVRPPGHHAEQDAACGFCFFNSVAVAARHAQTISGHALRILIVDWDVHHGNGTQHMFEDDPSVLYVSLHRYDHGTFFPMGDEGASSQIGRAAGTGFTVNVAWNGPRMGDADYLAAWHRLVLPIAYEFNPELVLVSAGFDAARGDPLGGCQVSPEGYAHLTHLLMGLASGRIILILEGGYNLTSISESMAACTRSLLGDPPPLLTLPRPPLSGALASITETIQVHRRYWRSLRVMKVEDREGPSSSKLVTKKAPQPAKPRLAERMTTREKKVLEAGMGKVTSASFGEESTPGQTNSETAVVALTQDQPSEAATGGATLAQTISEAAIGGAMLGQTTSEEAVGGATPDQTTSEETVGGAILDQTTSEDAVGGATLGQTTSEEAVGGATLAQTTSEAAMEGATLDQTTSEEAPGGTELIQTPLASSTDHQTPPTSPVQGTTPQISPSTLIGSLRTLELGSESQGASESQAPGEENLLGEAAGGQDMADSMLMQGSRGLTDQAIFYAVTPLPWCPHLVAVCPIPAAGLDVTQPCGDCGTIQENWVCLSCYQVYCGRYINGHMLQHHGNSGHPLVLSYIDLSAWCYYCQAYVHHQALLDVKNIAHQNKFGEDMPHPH

Target: SP1 (human (endogenous in FaDu and HK-1)) (UniProt P08047)
Experiment: co-IP; 800 ug lysate of FaDu and HK-1 cells (50 mM Tris pH 7.6, 150 mM NaCl, 0.5% Triton-X100, 0.1% Nonidet P-40) incubated with 5 ug anti-SP1 or normal rabbit IgG overnight at 4 C, Dynabeads Protein G, immunoblot

With “HDAC6 (from UniProt Q9UBN7 1-1215) (enzyme)” the binding was “binds”.
